Literature values as cited in paper PMC11787888, “Development and confirmation of humanized plasma and epithelial lining fluid exposures of meropenem, cefiderocol and tobramycin in a standardized neutropenic murine pneumonia model” (Journal of Antimicrobial Chemotherapy, 2024).

System: K. pneumoniae CDC 851
Parameters: method as in earlier work
Details: cited from earlier work

## C[C@@H](O)[C@H]1C(=O)N2C(C(=O)O)=C(S[C@@H]3CN[C@H](C(=O)N(C)C)C3)[C@H](C)[C@H]12 [Meropenem, meropenem]
  MIC: ≤ 0.12 µg/mL
